Counter-ions that a name gives are not always drawn. Some of the results follow. Plates or batches differ in their baseline, so values are only roughly comparable.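 HCT116-GFP, a KRAS-mutant, microsatellite-unstable human colorectal cancer line, constantly expresses green fluorescent protein; immune cells were from healthy donors. Cancer cell survival was tracked by live-cell imaging of green fluorescence, and activated immune cells by themselves reduced survival to roughly half.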

The assay deals with HCT116-GFP. The assay is described as follows: HCT116-GFP viability (GFP intensity) relative to untreated HCT116-GFP monoculture control, co-culture with activated PBMCs; higher = less cancer cell killing. As to conditions: culture: co-culture with anti-CD3/IL2 activated PBMCs 1:1; 10 µM; 72 h.
`CCCC(C(=O)OCCN(CC)CC)(c1ccccc1)c1ccccc1` [Proadifen hydrochloride] had an HCT116-GFP viability of 64.9%.

In turn, `Clc1ccccc1C(c1ccccc1)(c1ccccc1)n1ccnc1` [Clotrimazole] displayed an HCT116-GFP viability of 24.6%. `Clc1ccc(COC(Cn2ccnc2)c2ccc(Cl)cc2Cl)cc1` (stereo unspecified) [Econazole nitrate] yielded an HCT116-GFP viability of 25.7%. In the case of `CNC1(C)C2CCC(C2)C1(C)C` (stereo unspecified) [Mecamylamine hydrochloride], the HCT116-GFP viability amounted to 43.3%. To `C=C(NC(=O)C(=C)NC(=O)c1csc(C2=N[C@@H]3c4csc(n4)[C@H]4NC(=O)c5csc(n5)[C@H]([C@](C)(O)[C@@H](C)O)NC(=O)[C@H]5CSC(=N5)/C(=C/C)NC(=O)[C@H]([C@@H](C)O)NC(=O)c5csc(n5)[C@]3(CC2)NC(=O)[C@H](C)NC(=O)C(=C)NC(=O)[C@H](C)NC(=O)[C@H]([C@@H](C)CC)N[C@@H]2C=Cc3c([C@H](C)O)cc(nc3[C@H]2O)C(=O)O[C@@H]4C)n1)C(N)=O` [Thiostrepton] belongs 2.5%; to `CC(=C(CCO)SSCC1CCCO1)N(C=O)Cc1cnc(C)nc1N` (stereo in doubt) [Fursultiamine Hydrochloride], 56.4%. Turning to `CCC(C)(CN(C)C)OC(=O)c1ccccc1` (stereo unspecified) [Amyleine hydrochloride], the HCT116-GFP viability was 58.7%. `NC(=O)c1cccnc1` [Nicotinamide] returned an HCT116-GFP viability of 56.2%.

Compound `Cn1c(=O)c2c(ncn2CC(O)CO)n(C)c1=O` (stereo unspecified) [Diprophylline] showed an HCT116-GFP viability of 16.5%.

In turn, `CC(C)(Oc1ccc(C2CC2(Cl)Cl)cc1)C(=O)O` (stereo unspecified) [Ciprofibrate] displayed an HCT116-GFP viability of 28%.

As to `CC1=C(C(=O)O)N2C(=O)[C@@H](NC(=O)[C@H](N)c3ccc(O)cc3)[C@H]2SC1` [Cefadroxil], the HCT116-GFP viability was found to be 59%.

On to `C=CCN1CCCC1CNC(=O)c1cc2nn[nH]c2cc1OC` (stereo unspecified) [Alizapride hydrochloride], for which the HCT116-GFP viability came to 44.3%. `CNCC[C@@H](Oc1cccc2ccccc12)c1cccs1` [(R)-Duloxetine hydrochloride] yielded an HCT116-GFP viability of 57%. `CC(CCc1ccc(O)cc1)NCCc1ccc(O)c(O)c1` (stereo unspecified) [Dobutamine hydrochloride] gave an HCT116-GFP viability of 71.5%.

`Nc1ccc(S(N)(=O)=O)cc1` [Sulfanilamide] registered an HCT116-GFP viability of 64.2%.

As to `CCC(C)(C)c1ccc(CC(C)CN2C[C@@H](C)O[C@@H](C)C2)cc1` (stereo partly specified) [Amorolfine hydrochloride], the HCT116-GFP viability was found to be 53%. `CC[C@]12CCCN3CCc4c(n(c5ccccc45)[C@@](O)(C(=O)OC)C1)[C@@H]32` [Vincamine] returned an HCT116-GFP viability of 64.3%.

Turning to `COc1cc(N)c(Cl)cc1C(=O)NC1CCN(Cc2ccccc2)CC1` [Clebopride maleate], the HCT116-GFP viability stood at 58.6%. In the case of `Nc1nc(N)nc(-c2cc(Cl)ccc2Cl)n1` [Irsogladine maleate], the HCT116-GFP viability was 77.1%.

On to `CCN1CCCC1CNC(=O)c1cc(S(=O)(=O)CC)c(N)cc1OC` (stereo unspecified) [Amisulpride], for which the HCT116-GFP viability came to 46.5%. For the compound `CC(C)[C@H]1CC[C@H](C(=O)N[C@H](Cc2ccccc2)C(=O)O)CC1` [Nateglinide], the HCT116-GFP viability stood at 29.8%.

Regarding `COc1ccccc1OCCNCC(O)COc1cccc2[nH]c3ccccc3c12` (stereo unspecified) [Carvedilol], the HCT116-GFP viability is 55.8%.

`CC(C)c1nc(CN(C)C(=O)N[C@H](C(=O)N[C@@H](Cc2ccccc2)C[C@H](O)[C@H](Cc2ccccc2)NC(=O)OCc2cncs2)C(C)C)cs1` [Ritonavir]: the HCT116-GFP viability worked out at 41.3%. Then `CC1CCc2cc(F)cc3c(=O)c(C(=O)O)cn1c23` (stereo unspecified) [Flumequine], with 36.2%.

Consider `O=C(NCC1CCCCN1)c1cc(OCC(F)(F)F)ccc1OCC(F)(F)F` (stereo unspecified) [Flecainide acetate], for which the HCT116-GFP viability turned out to be 74.6%.

With `CCCCOc1ccc(OCCCN2CCOCC2)cc1` [Pramoxine hydrochloride], the HCT116-GFP viability turned out to be 71.6%.

Take `CCOC(=O)C1=C(C)NC(C)=C(C(=O)OC)C1c1cccc([N+](=O)[O-])c1` (stereo unspecified) [Nitrendipine]: the HCT116-GFP viability amounted to 64.8%. To `CCn1cc(C(=O)O)c(=O)c2cc(F)c(N3CCNCC3)cc21` [Norfloxacin] belongs 43.8%; to `O=C(c1ccc(OCCN2CCCCC2)cc1)c1c(-c2ccc(O)cc2)sc2cc(O)ccc12` [Raloxifene hydrochloride], 75.8%. The compound `CC(CN1c2ccccc2Sc2ccccc21)N(C)C` (stereo unspecified) [Promethazine hydrochloride] had an HCT116-GFP viability of 67.6%. To `NS(=O)(=O)c1cc2c(cc1C(F)(F)F)NC(Cc1ccccc1)NS2(=O)=O` (stereo unspecified) [Bendroflumethiazide] belongs 75.3%. To `CN(C)CCCC1(c2ccc(F)cc2)OCc2cc(C#N)ccc21` (stereo unspecified) [Citalopram Hydrobromide] belongs 60.9%; to `CCCC(CCC)C(=O)O` [Valproic acid], 32.5%; to `O=C(O)CNC(=O)C(CS)Cc1ccccc1` (stereo unspecified) [Thiorphan], 55.7%. Compound `Cc1onc(-c2ccccc2)c1C(=O)N[C@@H]1C(=O)N2[C@@H]1SC(C)(C)[C@@H]2C(=O)O` [Oxacillin sodium] had an HCT116-GFP viability of 77%. In the case of `CN(C)CCC(c1ccc(Cl)cc1)c1ccccn1` (stereo unspecified) [Chlorpheniramine maleate], the HCT116-GFP viability is 42.2%. Regarding `COc1cc(N)c(Cl)cc1C(=O)NC1CCN(CCCOc2ccc(F)cc2)CC1OC` (stereo unspecified) [Cisapride], the HCT116-GFP viability amounted to 72.8%. `COC1=CC(=O)C[C@@H](C)[C@]12Oc1c(Cl)c(OC)cc(OC)c1C2=O` [Griseofulvin] showed an HCT116-GFP viability of 10.4%. For `COC(=O)Nc1nc2cc(C(=O)c3ccc(F)cc3)ccc2[nH]1` [Flubendazol], the HCT116-GFP viability was found to be 7.7%. `CC(C)(C)NC(=O)[C@@H]1CN(Cc2cccnc2)CCN1C[C@@H](O)C[C@@H](Cc1ccccc1)C(=O)N[C@H]1c2ccccc2C[C@H]1O` [Indinavir sulfate] returned an HCT116-GFP viability of 16.8%.

`O=C(O[C@@H]1C[C@@H]2C[C@H]3C[C@H](C1)N2CC3=O)c1c[nH]c2ccccc12` [Dolasetron mesilate] registered an HCT116-GFP viability of 88.2%. The compound `CC(C)(C)NCC(O)c1ccc(O)c(CO)c1` (stereo unspecified) [Salbutamol] came in with an HCT116-GFP viability of 44%.

On to `Cc1c(OCC(F)(F)F)ccnc1C[S+]([O-])c1nc2ccccc2[nH]1` (stereo unspecified) [Lansoprazole], for which the HCT116-GFP viability came out at 44.2%.

`Cn1c(=O)c2c(ncn2C)n(C)c1=O` [Caffeine]: the HCT116-GFP viability was determined as 37.1%. Regarding `CCc1nn(CCCN2CCN(c3cccc(Cl)c3)CC2)c(=O)n1CCOc1ccccc1` [Nefazodone hydrochloride], the HCT116-GFP viability came to 58%. With `CCCNC(C)(C)COC(=O)c1ccccc1` [Meprylcaine hydrochloride], the HCT116-GFP viability was 47.8%. With `CCC1(C)CC(=O)NC1=O` (stereo unspecified) [Ethosuximide], the HCT116-GFP viability was found to be 37.2%. `NC1CCN(c2c(F)cc3c(=O)c(C(=O)O)cn(C4CC4)c3c2Cl)C1` (stereo unspecified) [Clinafloxacin] displayed an HCT116-GFP viability of 76.8%.

As for `C[N+](C)(CCOc1ccccc1)Cc1ccccc1.O=C([O-])c1cc2ccccc2cc1O` [Bephenium hydroxynaphthoate], the HCT116-GFP viability was determined as 83.3%. To `CC(NCCc1ccc(O)cc1)C(O)c1ccc(O)cc1` (stereo unspecified) [Ritodrine hydrochloride] belongs 48.4%; to `CCCc1nn(C)c2c(=O)[nH]c(-c3cc(S(=O)(=O)N4CCN(C)CC4)ccc3OCC)nc12` [Sildenafil], 40.2%. `CCC(C)(C)C(=O)O[C@H]1C[C@@H](C)C=C2C=C[C@H](C)[C@H](CC[C@@H]3C[C@@H](O)CC(=O)O3)[C@H]21` [Simvastatin] gave an HCT116-GFP viability of 48.3%. To `CC(=O)Oc1ccc(C(c2ccc(OC(C)=O)cc2)c2ccccn2)cc1` [Bisacodyl] belongs 31.3%; to `Nc1ccc(C(=O)O)c(O)c1` [4-aminosalicylic acid], 9.65%; to `O=C1Nc2ccc(Cl)cc2[C@@](C#CC2CC2)(C(F)(F)F)O1` [Efavirenz], 47.3%. Compound `CC[N+](C)(CC)CCC[n+]1c(-c2ccccc2)c2cc(N)ccc2c2ccc(N)cc21` [Propidium iodide] had an HCT116-GFP viability of 62.7%. Regarding `O=C(O)c1ccccc1Nc1cccc(C(F)(F)F)c1` [Flufenamic acid], the HCT116-GFP viability turned out to be 58.7%.

Take `Clc1ccc(C(c2ccccc2Cl)C(Cl)Cl)cc1` (stereo unspecified) [Mitotane]: the HCT116-GFP viability was 24.1%. As to `O=C1O[C@H]([C@@H](O)CO)C(O)=C1O` [Ascorbic acid], the HCT116-GFP viability came to 53%. Consider `Nc1ccc(/N=N/c2ccccc2)c(N)n1` [Phenazopyridine hydrochloride], for which the HCT116-GFP viability is 63.6%.

`CN(C)CCOC(=O)C(c1ccccc1)C1(O)CCCC1` (stereo unspecified) [Cyclopentolate hydrochloride] displayed an HCT116-GFP viability of 45.9%. Consider `CCC(=O)O[C@]1(C(=O)SCF)[C@H](C)C[C@H]2[C@@H]3C[C@H](F)C4=CC(=O)C=C[C@]4(C)[C@@]3(F)[C@@H](O)C[C@@]21C` [Fluticasone propionate], for which the HCT116-GFP viability came out at 66.9%. Take `OCCN1CCN(CC/C=C2/c3ccccc3Sc3ccc(Cl)cc32)CC1` [Zuclopenthixol dihydrochloride]: the HCT116-GFP viability stood at 41.6%. For the compound `Nc1nc(/C(=C/CC(=O)O)C(=O)N[C@@H]2C(=O)N3C(C(=O)O)=CCS[C@H]23)cs1` [Ceftibuten], the HCT116-GFP viability amounted to 32.5%. Take `CCN(CC)CCNC(=O)c1cc(Br)c(N)cc1OC` [Bromopride]: the HCT116-GFP viability came out at 79.7%.

Compound `OC(CCN1CCCCC1)(c1ccccc1)c1ccccc1` [Pridinol methanesulfonate salt] displayed an HCT116-GFP viability of 79.2%. To `CCCCC(=O)N(Cc1ccc(-c2ccccc2-c2nnn[nH]2)cc1)[C@H](C(=O)O)C(C)C` [Valsartan] belongs 33.8%; to `CC(C)NNC(=O)c1ccncc1` [Iproniazide phosphate], 57.7%; to `O=C1c2cccc(O)c2C(=O)c2c(O)cccc21` [1,8-Dihydroxyanthraquinone], 7.91%. Consider `O=C(O)CCC(=O)c1ccc(-c2ccccc2)cc1` [Fenbufen], for which the HCT116-GFP viability was found to be 31.6%. Then `N[C@@H](Cc1ccc(O)c(O)c1)C(=O)O` [Levodopa], with 46.3%. With `CN1CCN2c3ccccc3Cc3ccccc3C2C1` (stereo unspecified) [Mianserine hydrochloride], the HCT116-GFP viability turned out to be 32.3%.

In the case of `O=C(NC(Cc1cc(=O)[nH]c2ccccc12)C(=O)O)c1ccc(Cl)cc1` (stereo unspecified) [Rebamipide], the HCT116-GFP viability stood at 79%.

In turn, `Nc1ncn(C2OC(CO)C(O)C2O)c(=O)n1` (stereo unspecified) [Azacytidine-5] came in with an HCT116-GFP viability of 31.9%. `C[N+](C)(C)CCOC(N)=O` [Carbachol] returned an HCT116-GFP viability of 57.4%. As to `CC(C)(C)NC[C@H](O)COc1cccc2c1CCCC2=O` [(-) -Levobunolol hydrochloride], the HCT116-GFP viability came to 66%.

Values taken from the supplement of paper PMC9938546.
